Reference: patent publication US4110322A (Akzona Incorporated, priority 1976, dated 1978)

Experiment: general procedure: solution-phase peptide synthesis; DCCI/HOBt; azide method; HOOBt ester
Conditions: late stage modification step, acetate

In the case of “H-Met-Ala-Ala-Phe-D-Lys-Phe-Gly-D-Lys-Pro-Val-Gly-Lys-Lys-NH2.acetate”, the step yield is reported as 65.8%.
